Reference: PubChem BioAssay AID743454 (Peter MacCallum Cancer Centre, 2014)
Aim: 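Search for knock-downs that restore vorinostat killing in resistant colon cancer cells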 (primary screen). System: human HCT116-VR colon cancer cells, selected for vorinostat resistance. Knock-down reagent: siRNA pool against human genes, 40 nM siRNA pool. Time to read-out: vorinostat for 24 h, read-out about 72 h after transfection. Treatment: vorinostat at 2.5 µM final. Detection: 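Cell viability by CellTiter-Fluor and caspase 3/7 activity by luminescence, each scaled to mock wells per plate, duplicates averaged, then robust z-scored over all plates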. Scale: viability robust z-score: higher = more viable cells than screen typical; caspase robust z-score: higher = more caspase 3/7 activity than screen typical. Call rule: 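a knock-down is a hit when classed RV1 or RV2 for lowered viability, or CA1 or CA2 for caspase activation; those lethal without drug were dropped; hits were retested singly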.
Shown is an unselected part of about 18,000 deposited reagents. In the full data, 450 (2.5%) are marked active. 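Single biological run; no consistent viability z cut-off exists, so the class columns, not z-scores, define the calls.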 Unmarked entries are inactive.

Target gene	PubChem SID	viability hit class	caspase hit class	viability robust z-score	caspase robust z-score
UBA52 (ubiquitin A-52 residue ribosomal protein fusion product 1)	SID135622198	no change	no change	-4.42	-1.64
PSKH2 (protein serine kinase H2)	SID56479040	no change	no change	0.16	-0.38
TRMT10B (tRNA methyltransferase 10B)	SID152149755	no change	no change	0.5	1.1
SNORC	SID152147778	no change	no change	0.74	1.62
METTL8 (methyltransferase 8, tRNA N3-cytidine)	SID152148581	no change	no change	-0.02	-0.2
TTLL10 (tubulin tyrosine ligase like 10)	SID134320110	no change	no change	0.29	0.46
STAC2 (SH3 and cysteine rich domain 2)	SID152149619	no change	no change	0.66	-0.68
SLC26A6	SID152148350	no change	no change	0.91	0.08
DMAC2 (distal membrane arm assembly component 2)	SID134324713	no change	no change	-0.67	1.54
AGER (advanced glycosylation end-product specific receptor)	SID152154070	no change	no change	1.24	3.25
FAM135A (family with sequence similarity 135 member A)	SID152151525	no change	no change	0.38	-0.81
HPN (hepsin)	SID134310398	no change	no change	-0.01	1.25
MOB3C (MOB kinase activator 3C)	SID152154693	no change	no change	0.74	0.08
RBM3 (RNA binding motif protein 3)	SID152150055	no change	no change	-2	-0.08
MUCL1 (mucin like 1)	SID152155581	no change	no change	-0.93	0.8
POFUT4 (protein O-fucosyltransferase 4)	SID152155851	no change	no change	-0.47	-0.97
LMCD1 (LIM and cysteine rich domains 1)	SID134317787	no change	no change	-0.3	0.03
MCM7 (minichromosome maintenance complex component 7)	SID135620652	no change	no change	1.4	-0.19
CDH8 (cadherin 8)	SID134317745	no change	no change	-0.15	-0.39
PON1 (paraoxonase 1)	SID135621725	no change	no change	0.11	2.06
CYP11B1 (cytochrome P450 family 11 subfamily B member 1)	SID135621611	no change	no change	-0.06	0.4
NOC3L (NOC3 like DNA replication regulator)	SID134322077	no change	no change	0.08	-0.18
RGS9 (regulator of G protein signaling 9)	SID152156472	no change	no change	1.48	0.79
HNRNPU (heterogeneous nuclear ribonucleoprotein U)	SID152148952	no change	no change	-0.3	2.7
SV2C (synaptic vesicle glycoprotein 2C)	SID152148416	no change	no change	0.8	0.11
TRH (thyrotropin releasing hormone)	SID134323406	no change	no change	-2.14	1.14
GALNT12 (polypeptide N-acetylgalactosaminyltransferase 12)	SID152155290	no change (active)	CA2 (caspase activation)	-0.83	6.34
APLNR (apelin receptor)	SID152150252	no change	no change	0.24	-0.3
SLC1A2	SID152154008	no change	no change	0.25	-1.18
PCP4 (Purkinje cell protein 4)	SID134323861	RV2 (reduced viability) (active)	no change	-4.25	2.95
PGA5 (pepsinogen A5)	SID134311416	no change	no change	0.76	-0.88
SMYD2 (SET and MYND domain containing 2)	SID134324014	no change	no change	2.41	-0.74
PLEKHG4B (pleckstrin homology and RhoGEF domain containing G4B)	SID152155774	no change	no change	-0.34	-0.16
MGAT4A	SID135622322	no change	no change	1.86	-0.75
ZNF146 (zinc finger protein 146)	SID135623790	no change	no change	1.32	0
ZIC3 (Zic family zinc finger 3)	SID134316117	no change	no change	-0.67	1.19

6 entries already listed, ordered by “caspase robust z-score”, low to high:
Target gene	PubChem SID	viability hit class	caspase hit class	viability robust z-score	caspase robust z-score
STAC2 (SH3 and cysteine rich domain 2)	SID152149619	no change	no change	0.66	-0.68
PSKH2 (protein serine kinase H2)	SID56479040	no change	no change	0.16	-0.38
METTL8 (methyltransferase 8, tRNA N3-cytidine)	SID152148581	no change	no change	-0.02	-0.2
TTLL10 (tubulin tyrosine ligase like 10)	SID134320110	no change	no change	0.29	0.46
TRMT10B (tRNA methyltransferase 10B)	SID152149755	no change	no change	0.5	1.1
SNORC	SID152147778	no change	no change	0.74	1.62

Further records:
Target gene	PubChem SID	viability hit class	caspase hit class	viability robust z-score	caspase robust z-score
UNC5A (unc-5 netrin receptor A)	SID152147922	no change	no change	0.06	0.52
KIF20B (kinesin family member 20B)	SID134309846	no change	no change	1.25	-0.06
OXLD1 (oxidoreductase like domain containing 1)	SID152155272	no change	no change	-0.03	-0.72
CKMT2 (creatine kinase, mitochondrial 2)	SID152154085	no change	no change	-0.33	-0.83
PACRGL (parkin coregulated like)	SID134320331	no change	no change	0.22	1.96
LRRC10 (leucine rich repeat containing 10)	SID135624674	no change	no change	-0.84	-0.16
ENAH (ENAH actin regulator)	SID152146844	no change	no change	0.08	1.41
IFNB1 (interferon beta 1)	SID135623798	no change	no change	-0.17	2.83
MRPS18A (mitochondrial ribosomal protein S18A)	SID134312131	no change	no change	0.04	0.6
GPATCH1 (G-patch domain containing 1)	SID134320801	no change	no change	0.41	-0.68
MAMDC2 (MAM domain containing 2)	SID134319793	no change	no change	0.77	-0.26
PPFIBP1 (PPFIB scaffold protein 1)	SID134315818	no change	no change	0.07	-0.45
C1QTNF4 (C1q and TNF related 4)	SID152152233	no change	no change	-1.19	2.94
C5orf15 (chromosome 5 open reading frame 15)	SID134323949	no change	no change	-1.14	-0.04
ZBED2 (zinc finger BED-type containing 2)	SID152150718	no change	no change	-1.36	-0.55
SEMA4F (ssemaphorin 4F)	SID152155663	no change (active)	CA1 (caspase activation)	-0.59	6.73
ALKBH5 (alkB homolog 5, RNA demethylase)	SID152156277	no change (active)	CA2 (caspase activation)	-2.48	6.82
AAR2 (AAR2 splicing factor)	SID152149028	no change	no change	1	-0.86
OR5I1 (olfactory receptor family 5 subfamily I member 1)	SID135621646	no change	no change	0.28	-0.94
FAP (fibroblast activation protein alpha)	SID135620746	no change	no change	-1.09	-0.62
SCGN (secretagogin, EF-hand calcium binding protein)	SID152155763	no change	no change	-0.55	1.57
